Source: the supplement of paper PMC12823440, “Inhibitors supercharge kinase turnover through native proteolytic circuits” (Nature, 2025)
The list shows a part of the results. Hit calls seldom repeat between salt and free forms of one compound.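 Kinases were expressed as nanoluciferase fusions in K562 cells and luminescence was read every 4 h between 2 and 18 h as percent of control, DMSO set to 100% and a positive control to 0%. A time point counts as decreased when the signal drops significantly (2 sigma). The hit call is the authors' own, does not follow from the count of time points alone, and its rule is not shown.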

Amino acid sequences for entries named in this document (tags omitted). A change or cut given only in a name is not applied to a line headed by its entry.
UniProt P00519, whole entry: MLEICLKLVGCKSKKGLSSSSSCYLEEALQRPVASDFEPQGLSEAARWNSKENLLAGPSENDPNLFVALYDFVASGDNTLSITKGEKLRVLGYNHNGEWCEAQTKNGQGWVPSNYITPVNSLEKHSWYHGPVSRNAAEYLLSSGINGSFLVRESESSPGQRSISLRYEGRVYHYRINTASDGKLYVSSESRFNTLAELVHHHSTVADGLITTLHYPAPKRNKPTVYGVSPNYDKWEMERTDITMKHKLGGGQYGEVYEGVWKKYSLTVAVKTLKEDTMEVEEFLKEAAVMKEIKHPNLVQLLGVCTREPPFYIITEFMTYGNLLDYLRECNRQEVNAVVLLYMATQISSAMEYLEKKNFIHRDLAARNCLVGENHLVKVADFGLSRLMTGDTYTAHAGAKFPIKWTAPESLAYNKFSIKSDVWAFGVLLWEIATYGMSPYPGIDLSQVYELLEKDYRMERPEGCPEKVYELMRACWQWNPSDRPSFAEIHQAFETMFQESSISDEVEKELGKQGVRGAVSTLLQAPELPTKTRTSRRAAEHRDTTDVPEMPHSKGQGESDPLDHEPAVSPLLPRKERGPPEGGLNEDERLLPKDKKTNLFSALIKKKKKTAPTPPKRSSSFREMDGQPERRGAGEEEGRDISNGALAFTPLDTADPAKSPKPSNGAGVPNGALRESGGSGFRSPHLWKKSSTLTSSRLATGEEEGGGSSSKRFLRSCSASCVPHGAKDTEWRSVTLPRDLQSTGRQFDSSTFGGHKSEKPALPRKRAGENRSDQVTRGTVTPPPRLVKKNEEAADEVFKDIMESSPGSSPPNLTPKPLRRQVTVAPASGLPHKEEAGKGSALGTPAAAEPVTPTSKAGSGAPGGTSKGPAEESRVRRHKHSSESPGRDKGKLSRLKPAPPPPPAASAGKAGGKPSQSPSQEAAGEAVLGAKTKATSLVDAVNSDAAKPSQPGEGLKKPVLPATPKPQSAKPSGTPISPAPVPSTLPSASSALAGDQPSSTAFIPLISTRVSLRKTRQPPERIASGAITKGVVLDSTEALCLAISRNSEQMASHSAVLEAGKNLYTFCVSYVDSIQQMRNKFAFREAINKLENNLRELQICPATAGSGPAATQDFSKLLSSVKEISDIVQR
UniProt O14965: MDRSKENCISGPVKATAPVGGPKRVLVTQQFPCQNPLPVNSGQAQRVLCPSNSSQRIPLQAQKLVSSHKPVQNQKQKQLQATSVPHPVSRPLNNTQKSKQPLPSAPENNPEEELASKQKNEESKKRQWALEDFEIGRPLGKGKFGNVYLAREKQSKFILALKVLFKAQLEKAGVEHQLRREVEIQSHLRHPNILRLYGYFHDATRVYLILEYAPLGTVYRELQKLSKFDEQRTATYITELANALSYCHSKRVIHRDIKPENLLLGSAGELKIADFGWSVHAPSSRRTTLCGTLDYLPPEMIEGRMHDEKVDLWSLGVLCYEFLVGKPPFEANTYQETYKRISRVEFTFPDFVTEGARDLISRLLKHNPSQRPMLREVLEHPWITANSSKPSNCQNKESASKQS
UniProt Q96GD4, whole entry: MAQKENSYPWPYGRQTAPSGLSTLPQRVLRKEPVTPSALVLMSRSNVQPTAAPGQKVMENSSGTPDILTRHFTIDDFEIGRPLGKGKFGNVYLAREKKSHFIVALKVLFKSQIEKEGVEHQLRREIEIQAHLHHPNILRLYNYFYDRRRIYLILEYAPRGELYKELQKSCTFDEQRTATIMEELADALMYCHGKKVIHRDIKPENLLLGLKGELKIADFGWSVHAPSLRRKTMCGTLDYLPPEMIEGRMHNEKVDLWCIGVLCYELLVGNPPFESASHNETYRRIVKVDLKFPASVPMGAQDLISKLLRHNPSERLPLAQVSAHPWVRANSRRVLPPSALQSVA
UniProt Q9UQB9: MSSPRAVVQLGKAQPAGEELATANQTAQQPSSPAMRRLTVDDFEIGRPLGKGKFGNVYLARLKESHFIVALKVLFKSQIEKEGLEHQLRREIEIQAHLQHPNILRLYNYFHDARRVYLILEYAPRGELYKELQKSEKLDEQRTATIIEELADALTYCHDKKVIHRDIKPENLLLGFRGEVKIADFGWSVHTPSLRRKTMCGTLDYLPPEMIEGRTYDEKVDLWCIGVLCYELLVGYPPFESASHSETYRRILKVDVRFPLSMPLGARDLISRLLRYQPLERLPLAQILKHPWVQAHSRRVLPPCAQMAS
UniProt P51451: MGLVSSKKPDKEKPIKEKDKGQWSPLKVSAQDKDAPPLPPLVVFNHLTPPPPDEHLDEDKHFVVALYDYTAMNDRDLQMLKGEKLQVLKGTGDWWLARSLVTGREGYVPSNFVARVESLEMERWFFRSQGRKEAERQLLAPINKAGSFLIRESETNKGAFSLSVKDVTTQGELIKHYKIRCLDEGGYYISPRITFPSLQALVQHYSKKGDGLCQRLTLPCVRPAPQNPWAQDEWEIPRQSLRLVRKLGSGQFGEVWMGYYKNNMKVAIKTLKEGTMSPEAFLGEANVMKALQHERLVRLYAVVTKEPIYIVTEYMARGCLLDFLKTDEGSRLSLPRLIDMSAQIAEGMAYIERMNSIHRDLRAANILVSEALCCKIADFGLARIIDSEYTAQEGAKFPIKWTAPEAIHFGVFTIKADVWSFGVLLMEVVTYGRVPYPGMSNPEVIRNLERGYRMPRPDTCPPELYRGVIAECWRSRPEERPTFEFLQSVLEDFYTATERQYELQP
UniProt P51813: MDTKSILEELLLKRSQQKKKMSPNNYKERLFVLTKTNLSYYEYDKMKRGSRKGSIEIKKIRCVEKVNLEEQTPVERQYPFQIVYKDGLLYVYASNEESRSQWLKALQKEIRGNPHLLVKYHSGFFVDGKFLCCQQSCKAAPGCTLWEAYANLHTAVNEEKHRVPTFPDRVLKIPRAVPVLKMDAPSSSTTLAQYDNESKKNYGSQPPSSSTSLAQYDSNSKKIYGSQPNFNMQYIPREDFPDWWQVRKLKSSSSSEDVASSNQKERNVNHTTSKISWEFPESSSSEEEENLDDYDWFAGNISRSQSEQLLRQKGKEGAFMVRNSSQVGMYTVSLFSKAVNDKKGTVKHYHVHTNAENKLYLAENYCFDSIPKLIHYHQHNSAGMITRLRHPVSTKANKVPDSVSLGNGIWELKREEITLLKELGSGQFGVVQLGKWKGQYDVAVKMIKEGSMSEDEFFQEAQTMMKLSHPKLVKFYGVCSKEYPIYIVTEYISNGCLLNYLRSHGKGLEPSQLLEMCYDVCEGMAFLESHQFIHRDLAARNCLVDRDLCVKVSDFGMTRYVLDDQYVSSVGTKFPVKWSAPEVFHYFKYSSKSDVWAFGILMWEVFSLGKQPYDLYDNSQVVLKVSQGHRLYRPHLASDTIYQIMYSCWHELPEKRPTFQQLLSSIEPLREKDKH
UniProt P15056, whole entry, looked up: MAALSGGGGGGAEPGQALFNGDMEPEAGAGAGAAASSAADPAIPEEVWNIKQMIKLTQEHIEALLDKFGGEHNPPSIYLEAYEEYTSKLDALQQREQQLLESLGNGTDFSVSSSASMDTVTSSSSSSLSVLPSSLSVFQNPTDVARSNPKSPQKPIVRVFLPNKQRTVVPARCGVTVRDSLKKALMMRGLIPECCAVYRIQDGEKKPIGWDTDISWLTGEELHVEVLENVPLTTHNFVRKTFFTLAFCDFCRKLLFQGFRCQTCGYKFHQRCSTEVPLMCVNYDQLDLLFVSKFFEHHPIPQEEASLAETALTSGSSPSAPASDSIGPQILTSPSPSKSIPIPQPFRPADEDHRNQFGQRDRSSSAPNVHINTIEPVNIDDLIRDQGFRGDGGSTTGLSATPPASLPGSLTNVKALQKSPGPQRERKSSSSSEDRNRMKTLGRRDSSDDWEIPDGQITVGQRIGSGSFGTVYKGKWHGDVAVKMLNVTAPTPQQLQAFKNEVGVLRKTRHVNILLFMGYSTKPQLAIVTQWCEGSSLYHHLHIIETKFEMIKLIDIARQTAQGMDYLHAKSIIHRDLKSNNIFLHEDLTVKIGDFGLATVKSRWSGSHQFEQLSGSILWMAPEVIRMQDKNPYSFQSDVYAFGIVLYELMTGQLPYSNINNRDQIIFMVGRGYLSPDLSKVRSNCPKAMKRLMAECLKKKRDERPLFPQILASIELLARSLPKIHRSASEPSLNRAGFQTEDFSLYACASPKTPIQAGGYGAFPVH
UniProt Q06187: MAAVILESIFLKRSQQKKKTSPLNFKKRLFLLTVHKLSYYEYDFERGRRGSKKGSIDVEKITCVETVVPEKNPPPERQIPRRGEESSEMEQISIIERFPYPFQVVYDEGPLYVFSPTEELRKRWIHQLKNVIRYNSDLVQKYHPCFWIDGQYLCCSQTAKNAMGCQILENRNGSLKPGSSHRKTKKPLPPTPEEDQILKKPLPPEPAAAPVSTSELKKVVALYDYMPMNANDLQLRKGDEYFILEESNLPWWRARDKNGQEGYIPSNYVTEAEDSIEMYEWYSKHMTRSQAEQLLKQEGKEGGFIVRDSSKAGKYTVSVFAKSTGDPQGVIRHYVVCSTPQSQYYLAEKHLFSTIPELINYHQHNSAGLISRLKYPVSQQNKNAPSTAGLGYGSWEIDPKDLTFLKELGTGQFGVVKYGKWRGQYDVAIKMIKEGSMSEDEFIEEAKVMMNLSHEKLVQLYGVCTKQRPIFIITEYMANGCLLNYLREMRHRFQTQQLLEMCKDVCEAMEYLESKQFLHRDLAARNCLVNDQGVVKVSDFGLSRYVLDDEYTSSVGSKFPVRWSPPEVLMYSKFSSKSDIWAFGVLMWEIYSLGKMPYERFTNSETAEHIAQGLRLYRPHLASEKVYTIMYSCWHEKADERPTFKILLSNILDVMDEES
UniProt Q9UQM7, whole entry: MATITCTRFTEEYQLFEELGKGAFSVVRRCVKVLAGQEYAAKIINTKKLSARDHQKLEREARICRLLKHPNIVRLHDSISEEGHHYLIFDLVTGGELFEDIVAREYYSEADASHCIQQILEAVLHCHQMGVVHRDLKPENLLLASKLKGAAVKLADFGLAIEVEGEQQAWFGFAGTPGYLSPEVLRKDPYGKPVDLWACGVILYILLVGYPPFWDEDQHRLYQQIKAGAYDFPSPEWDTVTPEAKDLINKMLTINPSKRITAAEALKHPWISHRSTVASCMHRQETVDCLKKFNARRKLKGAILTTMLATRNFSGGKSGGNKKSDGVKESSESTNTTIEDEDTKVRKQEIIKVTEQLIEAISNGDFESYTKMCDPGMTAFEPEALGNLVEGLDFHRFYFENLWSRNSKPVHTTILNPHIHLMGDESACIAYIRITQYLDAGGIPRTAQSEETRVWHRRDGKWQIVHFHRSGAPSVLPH
UniProt Q15131: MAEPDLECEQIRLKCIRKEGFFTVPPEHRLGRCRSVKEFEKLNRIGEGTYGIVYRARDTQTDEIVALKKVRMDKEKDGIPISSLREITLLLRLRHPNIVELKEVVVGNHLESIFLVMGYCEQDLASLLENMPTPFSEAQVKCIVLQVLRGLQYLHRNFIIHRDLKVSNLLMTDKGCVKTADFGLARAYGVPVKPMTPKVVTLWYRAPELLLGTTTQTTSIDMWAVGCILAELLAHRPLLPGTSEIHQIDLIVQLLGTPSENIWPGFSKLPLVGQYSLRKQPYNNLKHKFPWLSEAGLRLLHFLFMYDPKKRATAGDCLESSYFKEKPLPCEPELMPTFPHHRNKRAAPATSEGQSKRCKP
UniProt Q00526: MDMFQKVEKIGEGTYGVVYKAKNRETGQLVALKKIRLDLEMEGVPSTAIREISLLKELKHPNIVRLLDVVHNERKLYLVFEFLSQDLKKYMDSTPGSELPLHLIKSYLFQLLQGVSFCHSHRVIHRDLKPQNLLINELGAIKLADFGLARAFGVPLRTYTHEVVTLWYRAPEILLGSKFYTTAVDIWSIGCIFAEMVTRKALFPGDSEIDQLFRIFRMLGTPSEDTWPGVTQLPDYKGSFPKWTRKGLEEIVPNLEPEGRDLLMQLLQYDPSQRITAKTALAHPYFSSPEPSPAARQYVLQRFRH
UniProt P11802: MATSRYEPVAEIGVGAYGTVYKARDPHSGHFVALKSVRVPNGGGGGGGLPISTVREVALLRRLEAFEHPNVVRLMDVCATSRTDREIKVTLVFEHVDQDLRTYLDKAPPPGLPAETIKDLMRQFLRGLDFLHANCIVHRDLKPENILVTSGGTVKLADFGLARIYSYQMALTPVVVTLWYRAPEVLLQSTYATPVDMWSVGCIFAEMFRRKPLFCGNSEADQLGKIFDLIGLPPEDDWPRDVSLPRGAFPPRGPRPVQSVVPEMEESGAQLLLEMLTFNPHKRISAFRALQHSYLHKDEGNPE
UniProt Q00534, whole entry: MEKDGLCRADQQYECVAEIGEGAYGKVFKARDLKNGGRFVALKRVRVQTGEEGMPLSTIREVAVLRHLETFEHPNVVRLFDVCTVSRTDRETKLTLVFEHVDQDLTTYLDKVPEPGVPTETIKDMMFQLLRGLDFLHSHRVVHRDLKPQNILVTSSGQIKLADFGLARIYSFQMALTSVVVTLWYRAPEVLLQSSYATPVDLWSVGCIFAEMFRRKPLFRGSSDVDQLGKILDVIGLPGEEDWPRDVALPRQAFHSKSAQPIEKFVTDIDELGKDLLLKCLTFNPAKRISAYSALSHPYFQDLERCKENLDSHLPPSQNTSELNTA

Columns and labels:
Experiment in all cases: kinase-Nluc reporter destabilization hit call (1 = scored as downregulated) (binary); higher = compound decreases kinase abundance
Details in all cases: K562; 2-18 h
ABL1 = ABL1 (UniProt P00519)
AKT1 = AKT1 (UniProt P31749)
ALK = ALK (UniProt Q9UM73)
ARAF = ARAF (UniProt P10398)
AURKA = AURKA (UniProt O14965)
AURKB = AURKB (UniProt Q96GD4)
AURKC = AURKC (UniProt Q9UQB9)
BLK = BLK (UniProt P51451)
BMX = BMX (UniProt P51813)
BRAF = BRAF (UniProt P15056)
BRAF_V600E = tested on: BRAF_V600E
BTK = BTK (UniProt Q06187)
CAMK2A = CAMK2A (UniProt Q9UQM7)
CAMK2G = CAMK2G (UniProt Q13555)
CDK10 = CDK10 (UniProt Q15131)
CDK2 = CDK2 (UniProt P24941)
CDK3 = CDK3 (UniProt Q00526)
CDK4 = CDK4 (UniProt P11802)
CDK5 = CDK5 (UniProt Q00535)
CDK6 = CDK6 (UniProt Q00534)

Measured: kinase-Nluc reporter destabilization hit call

COc1cccc(Nc2ncnn3ccc(CN4CC[C@@H](N)[C@H](O)C4)c23)c1 (2.5 µM)
inactive: ABL1 = 0 | AKT1 = 0 | ALK 0 | ARAF 0 | AURKA 0 | AURKB 0 | AURKC 0 | BLK 0 | BMX 0 | BRAF 0 | BRAF_V600E 0 | BTK 0 | CAMK2A 0 | CAMK2G 0 | CDK10 = 0 | CDK2 = 0 | CDK3 = 0 | CDK4 = 0 | CDK5 = 0 | CDK6 = 0

CC(C)[C@H](CO)Nc1nc(Nc2ccc(C(=O)O)c(Cl)c2)c2ncn(C(C)C)c2n1 [Purvalanol B] (10 µM)
inactive: ABL1 = 0 | AKT1 = 0 | ALK 0 | ARAF 0 | AURKA 0 | AURKB 0 | AURKC 0 | BLK 0 | BMX 0 | BRAF 0 | BRAF_V600E 0 | BTK 0 | CAMK2A 0 | CAMK2G 0 | CDK10 = 0 | CDK2 = 0 | CDK3 = 0 | CDK4 = 0 | CDK5 = 0 | CDK6 = 0

N#Cc1c[nH]c2ccc(-c3ccc(-c4c(O)cccc4O)cc3)cc12 (10 µM)
inactive: ABL1 = 0 | AKT1 = 0 | ALK 0 | ARAF 0 | AURKA 0 | AURKB 0 | AURKC 0 | BLK 0 | BMX 0 | BRAF 0 | BRAF_V600E 0 | BTK 0 | CAMK2A 0 | CAMK2G 0 | CDK10 = 0 | CDK2 = 0 | CDK3 = 0 | CDK4 = 0 | CDK5 = 0 | CDK6 = 0

O=C(c1ccc(NS(=O)(=O)c2cccc3cccnc23)cc1)N1CCN(CC2CC2)CC1 [Mitapivat] (10 µM)
inactive: ABL1 = 0 | AKT1 = 0 | ALK 0 | ARAF 0 | AURKA 0 | AURKB 0 | AURKC 0 | BLK 0 | BMX 0 | BRAF 0 | BRAF_V600E 0 | BTK 0 | CAMK2A 0 | CAMK2G 0 | CDK10 = 0 | CDK2 = 0 | CDK3 = 0 | CDK4 = 0 | CDK5 = 0 | CDK6 = 0

NC(=O)c1cccc2c(N[C@H](CN3CCC3)c3ccc(Cl)c(C(F)(F)F)c3)ncnc12 (10 µM)
inactive: ABL1 = 0 | AKT1 = 0 | ALK 0 | ARAF 0 | AURKA 0 | AURKB 0 | AURKC 0 | BLK 0 | BMX 0 | BRAF 0 | BRAF_V600E 0 | BTK 0 | CAMK2A 0 | CAMK2G 0 | CDK10 = 0 | CDK2 = 0 | CDK3 = 0 | CDK4 = 0 | CDK5 = 0 | CDK6 = 0

CCOc1cc(C(=O)N2CCC(N3CCN(C)CC3)CC2)ccc1Nc1ncc2c(n1)N(S(C)(=O)=O)c1ccccc1C(=O)N2C (10 µM)
inactive: ABL1 = 0 | AKT1 = 0 | ALK 0 | ARAF 0 | AURKA 0 | AURKB 0 | AURKC 0 | BLK 0 | BMX 0 | BRAF 0 | BRAF_V600E 0 | BTK 0 | CAMK2A 0 | CAMK2G 0 | CDK10 = 0 | CDK2 = 0 | CDK3 = 0 | CDK4 = 0 | CDK5 = 0 | CDK6 = 0

Cc1cc(Nc2ncc(Cl)c(Nc3ccccc3S(=O)(=O)C(C)C)n2)c(OC(C)C)cc1C1CCN(CC(=O)NCCNc2cccc3c2C(=O)N(C2CCC(=O)NC2=O)C3=O)CC1 (stereo not given) (10 µM)
inactive: ABL1 = 0 | AKT1 = 0 | ALK 0 | ARAF 0 | AURKA 0 | AURKB 0 | AURKC 0 | BLK 0 | BMX 0 | BRAF 0 | BRAF_V600E 0 | BTK 0 | CAMK2A 0 | CAMK2G 0 | CDK10 = 0 | CDK2 = 0 | CDK3 = 0 | CDK4 = 0 | CDK5 = 0
active: CDK6 = 1

C[C@H](Nc1ccc2c(c1)OCCn1cc(N3C(=O)OC[C@H]3C(F)F)nc1-2)C(N)=O (10 µM)
inactive: ABL1 = 0 | AKT1 = 0 | ALK 0 | ARAF 0 | AURKA 0 | AURKB 0 | AURKC 0 | BLK 0 | BMX 0 | BRAF 0 | BRAF_V600E 0 | BTK 0 | CAMK2A 0 | CAMK2G 0 | CDK10 = 0 | CDK2 = 0 | CDK3 = 0 | CDK4 = 0 | CDK5 = 0 | CDK6 = 0

CC(C)(C)S(=O)(=O)c1cc2c(Nc3ccc4scnc4c3)ccnc2cc1OCCOCCOCCOCCOCC(=O)Nc1cccc2c1CN(C1CCC(=O)NC1=O)C2=O (stereo not given) [PROTAC RIPK degrader-6] (10 µM)
inactive: ABL1 = 0 | AKT1 = 0 | ALK 0 | ARAF 0 | AURKA 0 | AURKB 0 | AURKC 0 | BLK 0 | BMX 0 | BRAF 0 | BRAF_V600E 0 | BTK 0 | CAMK2A 0 | CAMK2G 0 | CDK10 = 0 | CDK2 = 0 | CDK3 = 0 | CDK4 = 0 | CDK5 = 0 | CDK6 = 0

C[C@H](CC[C@@H](O)C(C)(C)O)[C@H]1CC[C@@]2(C)[C@@H]3CC=C4[C@@H](CC[C@H](O)C4(C)C)[C@]3(C)[C@H](O)C[C@]12C [Mogrol] (10 µM)
inactive: ABL1 = 0 | AKT1 = 0 | ALK 0 | ARAF 0 | AURKA 0 | AURKB 0 | AURKC 0 | BLK 0 | BMX 0 | BRAF 0 | BRAF_V600E 0 | BTK 0 | CAMK2A 0 | CAMK2G 0 | CDK10 = 0 | CDK2 = 0 | CDK3 = 0 | CDK4 = 0 | CDK5 = 0 | CDK6 = 0

CCS(=O)(=O)c1ccc(Oc2cc(O[C@@H](C)CO)cc(C(=O)Nc3ccn(C)n3)c2)cn1 (10 µM)
inactive: ABL1 = 0 | AKT1 = 0 | ALK 0 | ARAF 0 | AURKA 0 | AURKB 0 | AURKC 0 | BLK 0 | BMX 0 | BRAF 0 | BRAF_V600E 0 | BTK 0 | CAMK2A 0 | CAMK2G 0 | CDK10 = 0 | CDK2 = 0 | CDK3 = 0 | CDK4 = 0 | CDK5 = 0 | CDK6 = 0

Looked up one by one from above, 2 records:
CC(C)(C)S(=O)(=O)c1cc2c(Nc3ccc4scnc4c3)ccnc2cc1OCCOCCOCCOCCOCC(=O)Nc1cccc2c1CN(C1CCC(=O)NC1=O)C2=O (stereo not given) [PROTAC RIPK degrader-6] (10 µM)
inactive: ABL1 = 0 | AKT1 = 0 | ALK 0 | ARAF 0 | AURKA 0 | AURKB 0 | AURKC 0 | BLK 0 | BMX 0 | BRAF 0 | BRAF_V600E 0 | BTK 0 | CAMK2A 0 | CAMK2G 0 | CDK10 = 0 | CDK2 = 0 | CDK3 = 0 | CDK4 = 0 | CDK5 = 0 | CDK6 = 0

CCS(=O)(=O)c1ccc(Oc2cc(O[C@@H](C)CO)cc(C(=O)Nc3ccn(C)n3)c2)cn1 (10 µM)
inactive: ABL1 = 0 | AKT1 = 0 | ALK 0 | ARAF 0 | AURKA 0 | AURKB 0 | AURKC 0 | BLK 0 | BMX 0 | BRAF 0 | BRAF_V600E 0 | BTK 0 | CAMK2A 0 | CAMK2G 0 | CDK10 = 0 | CDK2 = 0 | CDK3 = 0 | CDK4 = 0 | CDK5 = 0 | CDK6 = 0

Continued.

Cn1c(=O)c(Oc2ccc(F)cc2F)cc2cnc(NC(CCO)CCO)nc21 [Pamapimod] (10 µM)
inactive: ABL1 = 0 | AKT1 = 0 | ALK 0 | ARAF 0 | AURKA 0 | AURKB 0 | AURKC 0 | BLK 0 | BMX 0 | BRAF 0 | BRAF_V600E 0 | BTK 0 | CAMK2A 0 | CAMK2G 0 | CDK10 = 0 | CDK2 = 0 | CDK3 = 0 | CDK4 = 0 | CDK5 = 0 | CDK6 = 0

CC(C)(O)c1cc(Nc2cc(Oc3cn(C4CC4)nc3C3CCOCC3)ccn2)ccn1 (10 µM)
inactive: ABL1 = 0 | AKT1 = 0 | ALK 0 | ARAF 0 | AURKA 0 | AURKB 0 | AURKC 0 | BLK 0 | BMX 0 | BRAF 0 | BRAF_V600E 0 | BTK 0 | CAMK2A 0 | CAMK2G 0 | CDK10 = 0 | CDK2 = 0 | CDK3 = 0 | CDK4 = 0 | CDK5 = 0 | CDK6 = 0

O=C(CCc1ccc2n1[B-](F)(F)[N+]1=C(c3ccc[nH]3)C=CC1=C2)ON1C(=O)CCC1=O [Py-BODIPY-NHS ester] (2.5 µM)
inactive: ABL1 = 0 | AKT1 = 0 | ALK 0 | ARAF 0 | AURKA 0 | AURKB 0 | AURKC 0 | BLK 0 | BMX 0 | BRAF 0 | BRAF_V600E 0 | BTK 0 | CAMK2A 0 | CAMK2G 0 | CDK10 = 0 | CDK2 = 0 | CDK3 = 0 | CDK4 = 0 | CDK5 = 0 | CDK6 = 0

C[C@H]1CNC(=O)c2cnn3ccc(nc23)N[C@H](C)c2cc(F)ccc2O1 [Repotrectinib] (2.5 µM)
inactive: ABL1 = 0 | AKT1 = 0 | ALK 0 | ARAF 0 | AURKA 0 | AURKB 0 | AURKC 0 | BLK 0 | BMX 0 | BRAF 0 | BRAF_V600E 0 | BTK 0 | CAMK2A 0 | CAMK2G 0 | CDK10 = 0 | CDK2 = 0 | CDK3 = 0 | CDK4 = 0 | CDK5 = 0 | CDK6 = 0

O=C(Nc1nccs1)C(c1cc(F)ccc1O)N1Cc2ccc(-c3ccc(N4CCNCC4)cc3)cc2C1=O (racemic) (10 µM)
inactive: ABL1 = 0 | AKT1 = 0 | ALK 0 | ARAF 0 | AURKA 0 | AURKB 0 | AURKC 0 | BLK 0 | BMX 0 | BRAF 0 | BRAF_V600E 0 | BTK 0 | CAMK2A 0 | CAMK2G 0 | CDK10 = 0 | CDK2 = 0 | CDK3 = 0 | CDK4 = 0 | CDK5 = 0 | CDK6 = 0

Cc1ccc(CNC(=O)N2CCC[C@]3(CCN(Cc4ccc(Cl)c(Cl)c4)C3)C2)cc1 (10 µM)
inactive: ABL1 = 0 | AKT1 = 0 | ALK 0 | ARAF 0 | AURKA 0 | AURKB 0 | AURKC 0 | BLK 0 | BMX 0 | BRAF 0 | BRAF_V600E 0 | BTK 0 | CAMK2A 0 | CAMK2G 0 | CDK10 = 0 | CDK2 = 0 | CDK3 = 0 | CDK4 = 0 | CDK5 = 0 | CDK6 = 0
